Results are given in words; binding and its absence hold for the method and conditions named.

This assay addresses T1, recombinant bovine HSC70 (bovine, UniProt P19120 1-650).
T1 construct: heat-shock cognate HSC70 protein, bovine, recombinant (Stressgen); Immobilised through one of its four thiol groups in the SPR experiment; no tag is named; also called recombinant HSC70 protein; source: bought: Stressgen (recombinant)
Description: SPR; BIAcore 3000; recombinant bovine HSC70 immobilised on CM5 chip through its thiol groups (13,000 RU); peptides injected (1.56 to 12.5 µM) 3 min, dissociation 3 min; 25°C, 20 µL/min; HBS-EP pH 7.4; 1:1 Langmuir model; both purified.

On to YVSRYFGSAIRHEPKMKIYRG (phosphoserine at position 8 of the peptide (pS in the printed letters)) [scrambled peptide P140 (ScP140)], for which the binding result is recorded as “no binding”.

The values are drawn from paper PMC2669294, “The Spliceosomal Phosphopeptide P140 Controls the Lupus Disease by Interacting with the HSC70 Protein and via a Mechanism Mediated by γδ T Cells” (PLoS ONE, 2009).
